Experimental data from PMC4366199, “Arfaptin-1 Negatively Regulates Arl1-Mediated Retrograde Transport” (PLoS ONE, 2015).
Results are given in words; binding and its absence hold for the method and conditions named. For some of these results: In cells and extracts the contact can be indirect. For some of these results: Sequences can lack the tags named with a protein.

By UniProt entry, the sequences of proteins in these tests, tags left out.
UniProt Q13439: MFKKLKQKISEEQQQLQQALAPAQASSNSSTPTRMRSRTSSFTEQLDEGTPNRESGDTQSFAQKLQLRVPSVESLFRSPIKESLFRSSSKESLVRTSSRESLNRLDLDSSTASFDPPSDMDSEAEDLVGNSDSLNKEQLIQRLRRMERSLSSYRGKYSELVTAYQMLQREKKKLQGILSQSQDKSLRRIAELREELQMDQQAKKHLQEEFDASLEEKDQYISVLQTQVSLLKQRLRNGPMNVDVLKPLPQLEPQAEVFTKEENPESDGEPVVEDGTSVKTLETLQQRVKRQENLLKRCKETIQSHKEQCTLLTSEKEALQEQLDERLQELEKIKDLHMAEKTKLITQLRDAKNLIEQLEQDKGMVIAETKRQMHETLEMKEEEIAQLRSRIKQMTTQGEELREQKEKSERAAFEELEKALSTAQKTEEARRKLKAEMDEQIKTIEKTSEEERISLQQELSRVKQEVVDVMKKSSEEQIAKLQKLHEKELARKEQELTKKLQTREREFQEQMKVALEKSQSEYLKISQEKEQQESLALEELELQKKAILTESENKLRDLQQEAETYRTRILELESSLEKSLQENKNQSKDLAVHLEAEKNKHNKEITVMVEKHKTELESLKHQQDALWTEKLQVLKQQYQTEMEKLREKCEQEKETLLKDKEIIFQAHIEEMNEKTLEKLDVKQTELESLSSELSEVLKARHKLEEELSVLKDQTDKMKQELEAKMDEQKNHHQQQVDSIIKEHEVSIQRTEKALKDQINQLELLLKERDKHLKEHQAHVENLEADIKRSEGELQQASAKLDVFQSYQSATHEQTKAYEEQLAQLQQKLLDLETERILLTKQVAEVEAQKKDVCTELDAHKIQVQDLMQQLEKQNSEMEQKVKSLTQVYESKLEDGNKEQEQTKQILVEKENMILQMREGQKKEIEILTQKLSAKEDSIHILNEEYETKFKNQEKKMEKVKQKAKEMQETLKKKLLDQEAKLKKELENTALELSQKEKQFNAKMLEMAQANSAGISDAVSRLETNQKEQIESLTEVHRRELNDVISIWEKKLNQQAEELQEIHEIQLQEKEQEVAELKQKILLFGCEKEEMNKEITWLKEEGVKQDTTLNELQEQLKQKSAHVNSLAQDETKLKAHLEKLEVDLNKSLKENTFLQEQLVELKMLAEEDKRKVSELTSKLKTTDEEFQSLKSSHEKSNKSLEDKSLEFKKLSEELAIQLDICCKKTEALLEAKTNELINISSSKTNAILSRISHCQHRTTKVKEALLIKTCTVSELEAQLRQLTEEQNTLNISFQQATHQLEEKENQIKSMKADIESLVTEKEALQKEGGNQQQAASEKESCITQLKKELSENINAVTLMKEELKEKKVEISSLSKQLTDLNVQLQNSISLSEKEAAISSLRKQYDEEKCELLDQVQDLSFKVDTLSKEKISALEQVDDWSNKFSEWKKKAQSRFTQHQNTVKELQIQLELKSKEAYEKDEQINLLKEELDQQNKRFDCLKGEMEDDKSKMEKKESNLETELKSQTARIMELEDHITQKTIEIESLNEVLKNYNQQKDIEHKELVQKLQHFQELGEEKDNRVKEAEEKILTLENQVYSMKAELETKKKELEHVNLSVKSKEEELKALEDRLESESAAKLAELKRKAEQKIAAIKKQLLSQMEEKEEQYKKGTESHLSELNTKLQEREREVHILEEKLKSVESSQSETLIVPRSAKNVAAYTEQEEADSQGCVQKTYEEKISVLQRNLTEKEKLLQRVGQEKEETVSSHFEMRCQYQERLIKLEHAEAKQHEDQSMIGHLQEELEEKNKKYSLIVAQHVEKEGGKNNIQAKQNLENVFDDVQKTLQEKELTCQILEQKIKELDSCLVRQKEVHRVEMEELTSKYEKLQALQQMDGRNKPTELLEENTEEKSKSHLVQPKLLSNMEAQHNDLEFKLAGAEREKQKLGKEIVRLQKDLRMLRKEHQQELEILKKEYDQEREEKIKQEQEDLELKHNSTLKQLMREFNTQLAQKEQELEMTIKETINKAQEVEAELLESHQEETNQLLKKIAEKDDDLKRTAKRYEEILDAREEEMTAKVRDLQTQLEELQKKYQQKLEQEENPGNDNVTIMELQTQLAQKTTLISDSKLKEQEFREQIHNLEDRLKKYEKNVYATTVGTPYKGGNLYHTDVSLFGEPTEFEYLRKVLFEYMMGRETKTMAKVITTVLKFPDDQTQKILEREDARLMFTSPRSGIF

T1: LexA DNA-binding domain fusion of Arl1QL (human) (UniProt P40616)
T1 sequence: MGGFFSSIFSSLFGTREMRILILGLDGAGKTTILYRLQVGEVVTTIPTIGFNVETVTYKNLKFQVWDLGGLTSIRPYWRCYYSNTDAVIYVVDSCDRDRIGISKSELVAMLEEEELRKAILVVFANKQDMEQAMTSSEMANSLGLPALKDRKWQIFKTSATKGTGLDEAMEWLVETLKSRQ


What was measured:
[1] = molecular target: T1, LexA DNA-binding domain fusion of Arl1QL (human); assay: two-hybrid; small GTPase fused to the LexA DNA-binding domain, arfaptin-1 constructs fused to the GAL4-activation domain, co-transformed into yeast strain L40; colonies screened for histidine auxotrophy
[2] = molecular target: GST-Arl1TN (dominant-negative, inactive form of Arl1) (human) (UniProt P40616); assay: pull-down; GST fusion proteins (5 μg) immobilized on glutathione-sepharose, incubated with GTPγS (QL) or GDP (TN); HeLa lysates (2.5 mg), endogenous proteins; 12.5% SDS-PAGE and western blotting; only the target purified

Molecule	binding [1]	binding [2]
arfaptin-1b-L2, GAL4-activation domain fusion (human) (domain or fragment)	no binding	–
arfaptin-1b (Arf-interacting protein 1b, long isoform), endogenous (natural protein, human (endogenous in HeLa), UniProt P53367 1-373, looked up, arfaptin-1b, long isoform of arfaptin-1 with an insertion (residues 69-100) absent from arfaptin-1a; source: endogenous, HeLa lysate) MAQESPKNSAAEIPVTSNGEVDDSREHSFNRDLKHSLPSGLGLSETQITSHGFDNTKEGVIEAGAFQGSPAPPLPSVMSPSRVAASRLAQQGSDLIVPAGGQRTQTKSGPVILADEIKNPAMEKLELVRKWSLNTYKCTRQIISEKLGRGSRTVDLELEAQIDILRDNKKKYENILKLAQTLSTQLFQMVHTQRQLGDAFADLSLKSLELHEEFGYNADTQKLLAKNGETLLGAINFFIASVNTLVNKTIEDTLMTVKQYESARIEYDAYRTDLEELNLGPRDANTLPKIEQSQHLFQAHKEKYDKMRNDVSVKLKFLEENKVKVLHNQLVLFHNAIAAYFAGNQKQLEQTLKQFHIKLKTPGVDAPSWLEEQ	–	no binding
arfaptin-1a (Arf-interacting protein 1, short isoform), endogenous (natural protein, human (endogenous in HeLa), UniProt P53367-2 1-341, looked up, arfaptin-1a, short isoform of arfaptin-1; lacks the insertion (residues 69-100) of arfaptin-1b; also called arfaptin-1a (short form); source: endogenous, HeLa lysate) MAQESPKNSAAEIPVTSNGEVDDSREHSFNRDLKHSLPSGLGLSETQITSHGFDNTKEGVIEAGAFQGGQRTQTKSGPVILADEIKNPAMEKLELVRKWSLNTYKCTRQIISEKLGRGSRTVDLELEAQIDILRDNKKKYENILKLAQTLSTQLFQMVHTQRQLGDAFADLSLKSLELHEEFGYNADTQKLLAKNGETLLGAINFFIASVNTLVNKTIEDTLMTVKQYESARIEYDAYRTDLEELNLGPRDANTLPKIEQSQHLFQAHKEKYDKMRNDVSVKLKFLEENKVKVLHNQLVLFHNAIAAYFAGNQKQLEQTLKQFHIKLKTPGVDAPSWLEEQ	–	no binding

Other lines, results leading:

binding [1]	binding [2]	Molecule
–	no binding	golgin-245, endogenous (from UniProt Q13439 1-2230)
no binding	–	arfaptin-1b-L3, GAL4-activation domain fusion (human) (domain or fragment)
–	no binding	golgin-97, endogenous (protein, UniProt Q92805 1-767) MFAKLKKKIAEETAVAQRPGGATRIPRSVSKESVASMGADSGDDFASDGSSSREDLSSQLLRRNEQIRKLEARLSDYAEQVRNLQKIKEKLEIALEKHQDSSMRKFQEQNETFQANRAKMAEGLALALARKDQEWSEKMDQLEKEKNILTAQLQEMKNQSMNLFQRRDEMDELEGFQQQELSKIKHMLLKKEESLGKMEQELEARTRELSRTQEELMNSNQMSSDLSQKLEELQRHYSTLEEQRDHVIASKTGAESKITALEQKEQELQALIQQLSIDLQKVTAETQEKEDVITHLQEKVASLEKRLEQNLSGEEHLQELLKEKTLAEQNLEDTRQQLLAARSSQAKAINTLETRVRELEQTLQASEEQLQQSKGIVAAQETQIQELAAANQESSHVQQQALALEQQFLERTQALEAQIVALERTRAADQTTAEQGMRQLEQENAALKECRNEYERSLQNHQFELKKLKEEWSQREIVSVAMAQALEEVRKQREEFQQQAANLTAIIDEKEQNLREKTEVLLQKEQEILQLERGHNSALLQIHQLQAELEALRTLKAEEAAVVAEQEDLLRLRGPLQAEALSVNESHVTSRAMQDPVFQLPTAGRTPNGEVGAMDLTQLQKEKQDLEQQLLEKNKTIKQMQQRMLELRKTLQKELKIRPDNELFEVREKPGPEMANMAPSVTNNTDLTDAREINFEYLKHVVLKFMSCRESEAFHLIKAVSVLLNFSQEEENMLKETLEYKMSWFGSKPAPKGSIRPSISNPRIPWS
–	no binding	arfaptin-2, endogenous (protein, UniProt P53365 1-341) MTDGILGKAATMEIPIHGNGEARQLPEDDGLEQDLQQVMVSGPNLNETSIVSGGYGGSGDGLIPTGSGRHPSHSTTPSGPGDEVARGIAGEKFDIVKKWGINTYKCTKQLLSERFGRGSRTVDLELELQIELLRETKRKYESVLQLGRALTAHLYSLLQTQHALGDAFADLSQKSPELQEEFGYNAETQKLLCKNGETLLGAVNFFVSSINTLVTKTMEDTLMTVKQYEAARLEYDAYRTDLEELSLGPRDAGTRGRLESAQATFQAHRDKYEKLRGDVAIKLKFLEENKIKVMHKQLLLFHNAVSAYFAGNQKQLEQTLQQFNIKLRPPGAEKPSWLEEQ
